Assay: Probe performance in Cedex Bio HT: Cys sensing in a feed medium
Details: feed medium DMT118F.01 with Cys
Experimental: The rapid kinetic profile, stability and low background signal as obtained were encouraging to further use MF70 for Cys-sensing in Cedex Bio HT. Reagent solution was treated with various Cys-concentrations (0.5-7.6 mM) in a feed medium, which is used for monoclonal antibody production. […] Under these conditions, a reliable response was obtained over the period of one week (Table 5), with corresponding detection limit of 3.6 μM Cys, and limit of blank 2.2 μM Cys.

For `C=CC(=O)Oc1c(C)cc(/C=C/C2=[N+](CCCS(=O)(=O)O)c3ccc(S(=O)(=O)[O-])cc3C2(C)C)cc1C` [MF70], the Found (spiked Cys 0.5 mM) was 0.64 mM, the Found (spiked Cys 1.5 mM) was 1.64 mM and the Found (spiked Cys 3.0 mM) was 3.03 mM. The Found (spiked Cys 4.5 mM) was 4.38 mM and the Found (spiked Cys 6.0 mM) was 5.83 mM.

Reference: US20240103006A1 (Roche Diagnostics Operations, Inc., priority 2021, published 2024)
